These results are taken from patent US20140170137A1.

These are yes or no findings as the source states them, for the method shown. Some binding calls cover weakened binding; strength is not graded here.

In the experiment the target is Staphylococcus Protein A (Staphylococcus) (UniProt P38507). As to the kind of experiment: Protein A chromatography.

B1: caN-HCB-kLC (antibody)
heavy: EVQLVESGGDLVNPGGTLTLSCVVSGFSLTNNNVNWVRQALGRGLEWVGGVWAGGATDYNSALKSRLTITRDTSKSTVFLKMHSLQSEDTATYYCARDGGYSSSTLYAMDAWGQGTLVTVSSASTTAPSVFPLAPSCGSTSGSTVALACLVSGYFPEPVTVSWNSGSLTSGVHTFPSVLQSSGLYSLSSMVTVPSSRWPSETFTCNVAHPASKTKVDKPVPKRENGRVPRPPDCPKCPAPEMLGGPSVFIFPPKPKDTLLIARTPEVTCVVVDLDPEDPEVQISWFVDGKQMQTAKTQPREEQFNGTYRVVSVLPIGHQDWLKGKQFTCKVNNKALPSPIERTISKARGQAHQPSVYVLPPSREELSKNTVSLTCLIKDFYPPDIDVEWQSNGQQEPESKYRTTPPQLDEDGSYFLYSKLSVDKSRWQRGDTFICAVMHEALHNHYTQESLSHSPGK
light: DIQMTQSPASLSLSQEEKVTITCRASEDIYNALAWYQQKPGQAPKLLIYNTDTLHTGVPSRFSGSGSGTEYSLTINSLESEDVAVYFCQHYFHYPRTFGAGTKVELKRNDAQPAVYLFQPSPDQLHTGSASVVCLLNSFYPKDINVKWKVDGVIQDTGIQESVTEQDKDSTYSLSSTLTMSSTEYLSHELYSCEITHKSLPSTLIKSFQRSECQRVD
Turning to B1, the binding result is recorded as “binds”.
